# These are yes or no findings as the source states them, for the method shown. In cells and extracts the contact can be indirect. Binding can be weak; no strength is given.
# Target: GST-RhoGDIβ fusion protein (human)
# Experiment: pull-down; GST-RhoGDIβ bound to glutathione-Sepharose beads; 300 μg lysate of 293T cells transfected with GFP-tagged ZAK constructs, pre-cleared; at least 2 h at 4°C in PD buffer (50 mM Tris-HCl pH 8.0, 150 mM NaCl, 0.5% NP40, 1 mM DTT, 1 mM PMSF); immunoblotting; only the target purified
binder,measurement,value
"ZAK 6-7 (fragment of amino acids 600-700 of ZAK) (domain or fragment, UniProt Q9NYL2 600-700) PFFSHFDGQDSYAAAVRRPQVPIKYQQITPVNQSRSSSPTQYGLTKNFSSLHLNSRDSGFSSGNTDTSSERGRYSDRSRNKYGRGSISLNSSPRGRYSGKS",binding,binds

# Source: PMC2653512
